Numbering of substitutions follows the chain as printed. In names and notes the source's numbering stands. No constants are given. Whether binding was seen depends on the method and setting. In cells and extracts the contact can be indirect. Some entries that bind do so weakly or less than the wild type. Sequences can lack the tags named with a protein.
T1: TACI-L (long TACI isoform) labeled with mCherry or YFP (human) (UniProt O14836)
T1 sequence: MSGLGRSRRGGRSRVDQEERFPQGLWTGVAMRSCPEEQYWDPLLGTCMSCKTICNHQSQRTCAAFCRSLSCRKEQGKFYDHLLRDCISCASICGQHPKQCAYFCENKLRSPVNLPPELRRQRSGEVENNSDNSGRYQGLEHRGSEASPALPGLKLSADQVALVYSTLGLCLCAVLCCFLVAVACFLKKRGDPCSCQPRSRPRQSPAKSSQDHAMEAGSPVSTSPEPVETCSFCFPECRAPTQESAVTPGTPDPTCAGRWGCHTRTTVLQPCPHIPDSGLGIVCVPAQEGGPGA

The chains behind the UniProt entries cited, without tags or fusion partners. Residues count along the entry.
UniProt P25942, residues 21-277: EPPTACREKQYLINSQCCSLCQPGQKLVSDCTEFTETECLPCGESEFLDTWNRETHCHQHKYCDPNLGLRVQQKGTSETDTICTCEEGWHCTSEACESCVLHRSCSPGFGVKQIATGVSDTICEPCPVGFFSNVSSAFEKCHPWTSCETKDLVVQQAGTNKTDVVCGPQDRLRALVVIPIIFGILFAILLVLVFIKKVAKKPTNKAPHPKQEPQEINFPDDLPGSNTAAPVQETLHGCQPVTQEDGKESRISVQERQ

T2: TACI-S (short TACI isoform) labeled with mCherry or YFP (human) (UniProt O14836)
T2 sequence: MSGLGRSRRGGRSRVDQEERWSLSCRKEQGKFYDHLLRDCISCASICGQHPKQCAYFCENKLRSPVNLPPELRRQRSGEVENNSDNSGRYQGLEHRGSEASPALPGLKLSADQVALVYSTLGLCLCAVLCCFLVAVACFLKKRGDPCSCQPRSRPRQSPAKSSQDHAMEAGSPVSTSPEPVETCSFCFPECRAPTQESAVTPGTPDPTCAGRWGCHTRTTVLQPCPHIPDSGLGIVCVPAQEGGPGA

B1: TACI-L S194X, mCherry labeled (receptor, UniProt O14836 1-193)
chain: MSGLGRSRRGGRSRVDQEERFPQGLWTGVAMRSCPEEQYWDPLLGTCMSCKTICNHQSQRTCAAFCRSLSCRKEQGKFYDHLLRDCISCASICGQHPKQCAYFCENKLRSPVNLPPELRRQRSGEVENNSDNSGRYQGLEHRGSEASPALPGLKLSADQVALVYSTLGLCLCAVLCCFLVAVACFLKKRGDPC
B2: TACI-L (long TACI isoform) labeled with mCherry or YFP (receptor, UniProt O14836 1-293)
chain: T1 sequence
B3: TACI-L A181E, mCherry labeled (receptor, UniProt O14836 1-293)
chain: T1 sequence with A181E
B4: TACI-L C104R, mCherry labeled (receptor, UniProt O14836 1-293)
chain: T1 sequence with C104R
B5: TACI-S (short TACI isoform) labeled with mCherry or YFP (receptor, UniProt O14836-2 1-247)
chain: T2 sequence

These binders were tested against CD40-eYFP (pReceiver-huCD40-eYFP) (human) (UniProt P25942) (assay: FRET or BRET; YFP and mCherry labeled proteins co-transfected (1 ug of each plasmid) into HEK-293T cells, 48 h, FRET signal read by FACS (LSRII or LSRFortessa); adding rhAPRIL or rhBAFF had no effect on the TACI-TACI signal).

Row | binding | Binder
1 | no binding | B1
2 | no binding | B2
3 | no binding | B3
4 | no binding | B4
5 | no binding | B5

What follows are binders tested against T1, TACI-L (long TACI isoform) labeled with mCherry or YFP (human) in the same assay as above.

Row | binding | Binder
6 | binds | B1
7 | binds | B2
8 | binds | B3
9 | binds | B4
10 | binds | B5

The binders below were run against T2, TACI-S (short TACI isoform) labeled with mCherry or YFP (human) in the same assay as above.

Row | binding | Binder
11 | binds | B1
12 | binds | B3
13 | binds | B4
14 | binds | B5

— PMC6176016
